Laboratory results published in paper PMC8110583.
No constants are given. Whether binding was seen depends on the method and setting. In cells and extracts the contact can be indirect. Some entries that bind do so weakly or less than the wild type.

Target: TDP-43 (human (endogenous in GPiNs, G401, T47D, A375)) (UniProt Q13148)
Assay: co-IP; biological replicates of the TDP-43 IP from GPiN lysate, western blots with interactor-specific antibodies

B1: MATR3 (protein, UniProt P43243 1-847)
chain: MSKSFQQSSLSRDSQGHGRDLSAAGIGLLAAATQSLSMPASLGRMNQGTARLASLMNLGMSSSLNQQGAHSALSSASTSSHNLQSIFNIGSRGPLPLSSQHRGDADQASNILASFGLSARDLDELSRYPEDKITPENLPQILLQLKRRRTEEGPTLSYGRDGRSATREPPYRVPRDDWEEKRHFRRDSFDDRGPSLNPVLDYDHGSRSQESGYYDRMDYEDDRLRDGERCRDDSFFGETSHNYHKFDSEYERMGRGPGPLQERSLFEKKRGAPPSSNIEDFHGLLPKGYPHLCSICDLPVHSNKEWSQHINGASHSRRCQLLLEIYPEWNPDNDTGHTMGDPFMLQQSTNPAPGILGPPPPSFHLGGPAVGPRGNLGAGNGNLQGPRHMQKGRVETSRVVHIMDFQRGKNLRYQLLQLVEPFGVISNHLILNKINEAFIEMATTEDAQAAVDYYTTTPALVFGKPVRVHLSQKYKRIKKPEGKPDQKFDQKQELGRVIHLSNLPHSGYSDSAVLKLAEPYGKIKNYILMRMKSQAFIEMETREDAMAMVDHCLKKALWFQGRCVKVDLSEKYKKLVLRIPNRGIDLLKKDKSRKRSYSPDGKESPSDKKSKTDGSQKTESSTEGKEQEEKSGEDGEKDTKDDQTEQEPNMLLESEDELLVDEEEAAALLESGSSVGDETDLANLGDVASDGKKEPSDKAVKKDGSASAAAKKKLKKVDKIEELDQENEAALENGIKNEENTEPGAESSENADDPNKDTSENADGQSDENKDDYTIPDEYRIGPYQPNVPVGIDYVIPKTGFYCKLCSLFYTNEEVAKNTHCSSLPHYQKLKKFLNKLAEERRQKKET
binding: binds
